What all share (type): cell-based
In assay [1] the target is T1, RNA polymerase II (Mus musculus) (UniProt P08775+Q8CFI7+P97760+A0A3Q4L2S8+Q80UW8+P61219+P62488+Q923G2+P60898+O08740+Q63871+P62876). Description: Inhibition of RNA polymerase II in mouse B16-F1 migrating cells assessed as fold change in Dnajc15-RNA stability at 0.1 mM measured by ChIP-seq analysis relative to control cells.
The target in assay [2] is T1, RNA polymerase II (Mus musculus). Description: Inhibition of RNA polymerase II in mouse B16-F1 migrating cells assessed as fold change in Abcb6-RNA stability at 0.1 mM measured by ChIP-seq analysis relative to control cells.
The target is the same in assay [3]. Put plainly: Inhibition of RNA polymerase II in mouse B16-F1 migrating cells assessed as fold change in Edf1-RNA stability at 0.1 mM measured by ChIP-seq analysis relative to control cells.
Assay [4] shares this target. Put plainly: Inhibition of RNA polymerase II in mouse B16-F1 migrating cells assessed as fold change in Zfyve19-RNA stability at 0.1 mM measured by ChIP-seq analysis relative to control cells.
The target is the same in assay [5]. Description: Inhibition of RNA polymerase II in mouse B16-F1 migrating cells assessed as fold change in B3gat3-RNA stability at 0.1 mM measured by ChIP-seq analysis relative to control cells.
The target is the same in assay [6]. Put plainly: Inhibition of RNA polymerase II in mouse B16-F1 migrating cells assessed as fold change in Slc25a39-RNA stability at 0.1 mM measured by ChIP-seq analysis relative to control cells.
Assay [7] shares this target. Description: Inhibition of RNA polymerase II in mouse B16-F1 migrating cells assessed as fold change in Snf8-RNA stability at 0.1 mM measured by ChIP-seq analysis relative to control cells.
Assay [8] shares this target. Put plainly: Inhibition of RNA polymerase II in mouse B16-F1 migrating cells assessed as fold change in Ltbr-RNA stability at 0.1 mM measured by ChIP-seq analysis relative to control cells.
Assay [9] has the same target. Description: Inhibition of RNA polymerase II in mouse B16-F1 migrating cells assessed as fold change in Abhd8-RNA stability at 0.1 mM measured by ChIP-seq analysis relative to control cells.
For assay [10] the target is unchanged. Description: Inhibition of RNA polymerase II in mouse B16-F1 migrating cells assessed as fold change in Clasp2-RNA stability at 0.1 mM measured by ChIP-seq analysis relative to control cells.
Assay [11] shares this target. Description: Inhibition of RNA polymerase II in mouse B16-F1 migrating cells assessed as fold change in Elovl6-RNA stability at 0.1 mM measured by ChIP-seq analysis relative to control cells.
Assay [12] has the same target. Description: Inhibition of RNA polymerase II in mouse B16-F1 migrating cells assessed as fold change in Zbtb2-RNA stability at 0.1 mM measured by ChIP-seq analysis relative to control cells.
For assay [13] the target is unchanged. Description: Inhibition of RNA polymerase II in mouse B16-F1 migrating cells assessed as fold change in Tmpo-RNA stability at 0.1 mM measured by ChIP-seq analysis relative to control cells.
Assay [14] shares this target. Description: Inhibition of RNA polymerase II in mouse B16-F1 migrating cells assessed as fold change in Ercc5-RNA stability at 0.1 mM measured by ChIP-seq analysis relative to control cells.
Assay [15] shares this target. Put plainly: Inhibition of RNA polymerase II in mouse B16-F1 migrating cells assessed as fold change in Atp13a3-RNA stability at 0.1 mM measured by ChIP-seq analysis relative to control cells.
The target is the same in assay [16]. Put plainly: Inhibition of RNA polymerase II in mouse B16-F1 migrating cells assessed as fold change in Trim59-RNA stability at 0.1 mM measured by ChIP-seq analysis relative to control cells.
Assay [17] shares this target. Description: Inhibition of RNA polymerase II in mouse B16-F1 migrating cells assessed as fold change in Fktn-RNA stability at 0.1 mM measured by ChIP-seq analysis relative to control cells.
Assay [18] shares this target. Put plainly: Inhibition of RNA polymerase II in mouse B16-F1 migrating cells assessed as fold change in Pet2-RNA stability at 0.1 mM measured by ChIP-seq analysis relative to control cells.
For assay [19] the target is unchanged. Put plainly: Inhibition of RNA polymerase II in mouse B16-F1 migrating cells assessed as fold change in Cbx3-RNA stability at 0.1 mM measured by ChIP-seq analysis relative to control cells.
The target is the same in assay [20]. Put plainly: Inhibition of RNA polymerase II in mouse B16-F1 migrating cells assessed as fold change in Pim3-RNA stability at 0.1 mM measured by ChIP-seq analysis relative to control cells.
The target is the same in assay [21]. Description: Inhibition of RNA polymerase II in mouse B16-F1 migrating cells assessed as fold change in Hmgb2-RNA stability at 0.1 mM measured by ChIP-seq analysis relative to control cells.
Assay [22] has the same target. Description: Inhibition of RNA polymerase II in mouse B16-F1 migrating cells assessed as fold change in Edaradd-RNA stability at 0.1 mM measured by ChIP-seq analysis relative to control cells.
Assay [23] concerns the target Histone-lysine N-methyltransferase EZH2 (Mus musculus) (UniProt Q61188). Put plainly: Inhibition of EZH2 in mouse B16-F1 migrating cells assessed as fold change in H3K27me3-independent regulated Rcn3-mRNA expression at 3 uM measured by ChIP-seq analysis relative to control cells.
Assay [24] shares this target. Description: Inhibition of EZH2 in mouse B16-F1 migrating cells assessed as fold change in H3K27me3-buffered regulated Tubb2a-mRNA expression at 3 uM measured by ChIP-seq analysis relative to control cells.
For assay [25] the target is unchanged. Description: Inhibition of EZH2 in mouse B16-F1 migrating cells assessed as fold change in H3K27me3-buffered regulated Ssb-mRNA expression at 3 uM measured by ChIP-seq analysis relative to control cells.
The target is the same in assay [26]. Description: Inhibition of EZH2 in mouse B16-F1 migrating cells assessed as fold change in H3K27me3-buffered regulated Uvssa-mRNA expression at 3 uM measured by ChIP-seq analysis relative to control cells.
Assay [27] shares this target. Description: Inhibition of EZH2 in mouse B16-F1 migrating cells assessed as fold change in H3K27me3-buffered regulated Clk4-mRNA expression at 3 uM measured by ChIP-seq analysis relative to control cells.
Assay [28] shares this target. Description: Inhibition of EZH2 in mouse B16-F1 migrating cells assessed as fold change in H3K27me3-buffered regulated 4921524J17Rik-mRNA expression at 3 uM measured by ChIP-seq analysis relative to control cells.
Assay [29] shares this target. Description: Inhibition of EZH2 in mouse B16-F1 migrating cells assessed as fold change in H3K27me3-buffered regulated Ccng2-mRNA expression at 3 uM measured by ChIP-seq analysis relative to control cells.
Assay [30] shares this target. Description: Inhibition of EZH2 in mouse B16-F1 migrating cells assessed as fold change in H3K27me3-buffered regulated Ccdc125-mRNA expression at 3 uM measured by ChIP-seq analysis relative to control cells.

Chains of the proteins cited; added tags and fusions are not shown.
UniProt Q61188, whole entry: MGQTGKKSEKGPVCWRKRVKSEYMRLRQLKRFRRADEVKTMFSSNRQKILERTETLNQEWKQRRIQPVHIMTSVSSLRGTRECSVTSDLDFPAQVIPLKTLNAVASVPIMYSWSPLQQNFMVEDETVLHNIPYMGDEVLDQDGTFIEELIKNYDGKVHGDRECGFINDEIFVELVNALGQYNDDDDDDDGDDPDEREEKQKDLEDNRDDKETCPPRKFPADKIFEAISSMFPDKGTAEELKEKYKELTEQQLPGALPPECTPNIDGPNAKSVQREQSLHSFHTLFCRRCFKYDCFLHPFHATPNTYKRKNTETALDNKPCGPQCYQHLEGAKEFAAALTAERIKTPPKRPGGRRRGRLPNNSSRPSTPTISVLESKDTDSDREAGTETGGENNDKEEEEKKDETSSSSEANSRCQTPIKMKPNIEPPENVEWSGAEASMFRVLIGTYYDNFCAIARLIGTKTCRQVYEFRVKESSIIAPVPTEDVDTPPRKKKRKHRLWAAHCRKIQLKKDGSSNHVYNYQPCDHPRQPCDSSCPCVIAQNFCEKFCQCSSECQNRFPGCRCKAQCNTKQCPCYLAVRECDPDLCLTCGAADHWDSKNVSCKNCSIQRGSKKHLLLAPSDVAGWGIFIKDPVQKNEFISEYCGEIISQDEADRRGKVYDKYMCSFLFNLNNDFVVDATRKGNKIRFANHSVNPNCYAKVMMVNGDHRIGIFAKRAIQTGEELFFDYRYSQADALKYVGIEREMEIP

This continues a long series; more values of the same kind are listed elsewhere.

As to `OC[C@H]1O[C@@H](n2cnc3cc(Cl)c(Cl)cc32)[C@H](O)[C@@H]1O`, the log2FC in assay [1] turned out to be 0.66; in [2], 0.62; in assay [3], 0.55; in [4], 0.55; in assay [5], 0.5; in assay [6], 0.44. In addition, the log2FC was 0.42 in assay [7]; 0.42 in [8]; 0.41 in [9]; -0.42 in [10]; -0.46 in assay [11]; -0.48 in [12]. The log2FC in assay [13] was -0.5; in [14] it was -0.51; in assay [15] it was -0.61; in assay [16], -0.72; in assay [17], -0.76; in assay [18] it was -0.78. The log2FC in assay [19] is -0.8; in [20], -0.83; in assay [21], -0.85; in assay [22], -1.22.
For `CCCc1cc(C)[nH]c(=O)c1CNC(=O)c1cc(-c2ccnc(N3CCN(C)CC3)c2)cc2c1cnn2C(C)C`, the log2FC in assay [23] was 0.57; in assay [24], 0.41; in assay [25], -0.38; in [26], -0.39; in assay [27], -0.47; in assay [28], -0.54. Moreover, the results for the log2FC in [29] and in assay [30] were -0.72 and -0.74, respectively.

(Values after ChEMBL document CHEMBL5674883, “The Heterochromatin Landscape in Migrating Cells and the Importance of H3K27me3 for Associated Transcriptome Alterations” (Cells, 2018).)
